PubChem BioAssay AID1259280 – Sanger Institute – 2017
The whole screen tested 794 reagents; this is a random part of them. In the full data, 12 (1.5%) are marked active. 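Calls cover knock-down without drug only; synergy scores stand apart, values above 0.15 being treated as synergy.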 Unmarked entries are inactive. No viability above 1 is reported: the scale is capped. Further read-outs or replicates are left out here. No sequences are given here. Not given: the amount of reagent, the time to read-out.

- Screen: 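Kinome siRNA screen for partners that synergise with BYL719, cetuximab or trametinib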 (primary screen)
- Cells: human SNU407 colorectal cancer cells
- Reagents: siRNA pool against human genes
- Treatment: anchor drugs BYL719 at 1 µM, cetuximab at 5 µg/ml or trametinib at 10 nM, or DMSO vehicle alone; exposure time not given
- Read-out: 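Viability per well scaled to a non-targeting pool and averaged over replicates, with a robust z-score from controls and a synergy score per anchor drug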
- Reading the numbers: viability z-score, no drug and viability vs control, no drug: higher = more cells survive the knock-down; synergy with trametinib and synergy with BYL719: higher = stronger synergy of knock-down with drug
- Call rule: 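Essential calls require a no-drug robust viability z-score under -3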
- Calls: active = essential (knock-down alone kills cells); inactive = no change without drug

no.	gene	PubChem SID	viability z-score, no drug	viability vs control, no drug (fraction of control)	synergy with trametinib	synergy with BYL719
1	KSR1 (GeneID 8844)	SID152156641	-2.14	0.768	0.0794	0.158
2	FGFRL1 (GeneID 53834)	SID135622448	0.234	0.949	-0.0652	0.0296
3	RAF1 (GeneID 5894)	SID152152442	0.505	0.97	0.00977	0.0883
4	MAST1 (GeneID 22983)	SID135620865	0.901	1	0.0027	-0.0228
5	NEK2 (GeneID 4751)	SID56478772	-0.193	0.916	-0.0333	0.0442
6	DGKD (GeneID 8527)	SID56479091	-0.23	0.914	0.0617	-0.0118
7	PRKG1 (GeneID 5592)	SID152152064	0.901	1	-0.0226	-0.00139
8	CILK1 (GeneID 22858)	SID152149076	-0.558	0.889	-0.0485	0.00498
9	GALK1 (GeneID 2584)	SID56479189	0.156	0.943	0.0452	-0.0264
10	FASTK (GeneID 10922)	SID56479004	-0.737	0.875	-0.0315	-0.075
11	TP53 (GeneID 7157)	SID135620665	0.622	0.979	0.0878	0.107
12	SKAP1 (GeneID 8631)	SID152154182	0.787	0.991	-0.00013	-0.0244
13	CDK19 (GeneID 23097)	SID56478856	0.594	0.977	0.0284	0.012
14	OXSR1 (GeneID 9943)	SID152151868	0.0952	0.938	0.0208	0.013
15	SNRK (GeneID 54861)	SID152154333	-0.267	0.911	-0.00521	0.0476
16	UHMK1 (GeneID 127933)	SID152150381	0.731	0.987	0.0789	-0.00255
17	PKDCC (GeneID 91461)	SID152147854	0.901	1	0.00723	-0.114
18	PAK6 (GeneID 56924)	SID56478794	0.592	0.976	0.0578	-0.00599
19	CHKB (GeneID 1120)	SID56479083	0.901	1	0.0659	0.0584
20	SPHK2 (GeneID 56848)	SID56478885	-1.29	0.833	-0.0506	0.0055
21	STK26 (GeneID 51765)	SID152154531	-0.121	0.922	-0.00999	-0.0594
22	MYO3B (GeneID 140469)	SID152152883	-0.0822	0.925	-0.0668	0.0123
23	DLG1 (GeneID 1739)	SID152148481	0.901	1	-0.0152	0.00408
24	LCK (GeneID 3932)	SID152150546	-1.28	0.833	0.00527	0.0125
25	ACVR1 (GeneID 90)	SID152154539	0.901	1	-0.00958	0.00246
26	PKM (GeneID 5315)	SID135621254	0.163	0.944	0.131	0.00998
27	PDGFRB (GeneID 5159)	SID152152554	-0.341	0.905	0.0767	0.0484
28	VRK3 (GeneID 51231)	SID135620981	0.901	1	-0.0812	0.0108
29	PIM2 (GeneID 11040)	SID56479034	-0.577	0.887	-0.00803	-0.00259
30	HIPK2 (GeneID 28996)	SID56478619	0.101	0.939	0.025	-0.0105
31	CSNK1A1 (GeneID 1452)	SID152148946	-0.327	0.906	0.0946	-0.0121
32	MARK1 (GeneID 4139)	SID152146970	0.901	1	0.00592	0.0138
33	SIK2 (GeneID 23235)	SID135620885	-1.71	0.8	-0.0465	0.0383
34	SRPK2 (GeneID 6733)	SID56478890	-1.05	0.851	-0.0807	0.0085
